This test concerns the target CD3ε, endogenous in J76 Jurkat cells (human (endogenous in Jurkat J76)) (UniProt P07766). Put plainly: co-IP.

Chains of the proteins cited; added tags and fusions are not shown. Residues count along the entry.
UniProt P07766, residues 23-207: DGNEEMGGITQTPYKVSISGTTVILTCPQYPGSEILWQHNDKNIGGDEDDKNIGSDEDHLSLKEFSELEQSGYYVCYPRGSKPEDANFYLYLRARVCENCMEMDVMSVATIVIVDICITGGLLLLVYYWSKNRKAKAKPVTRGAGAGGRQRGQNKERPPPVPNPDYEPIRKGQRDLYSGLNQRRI

Results are given in words; binding and its absence hold for the method and conditions named. In cells and extracts the contact can be indirect. Some results given as binding are weak or reduced against the parent protein; the word gives no strength.

In the case of “CD3ζ (ζζ dimer), endogenous in J76 Jurkat cells (from UniProt P20963-1 22-164)”, the binding result is “binds”.

These data come from paper doi:10.1101/2020.12.02.407882.
